Test results reported in BindingDB's records for doi:10.1038/sj.npp.1300203 (Case Western Reserve University, 2003).

By UniProt entry, the sequences of proteins in these tests, tags left out. Where a name states a change or a piece, a line headed by the entry shows the natural chain unless it says otherwise.
UniProt P41145: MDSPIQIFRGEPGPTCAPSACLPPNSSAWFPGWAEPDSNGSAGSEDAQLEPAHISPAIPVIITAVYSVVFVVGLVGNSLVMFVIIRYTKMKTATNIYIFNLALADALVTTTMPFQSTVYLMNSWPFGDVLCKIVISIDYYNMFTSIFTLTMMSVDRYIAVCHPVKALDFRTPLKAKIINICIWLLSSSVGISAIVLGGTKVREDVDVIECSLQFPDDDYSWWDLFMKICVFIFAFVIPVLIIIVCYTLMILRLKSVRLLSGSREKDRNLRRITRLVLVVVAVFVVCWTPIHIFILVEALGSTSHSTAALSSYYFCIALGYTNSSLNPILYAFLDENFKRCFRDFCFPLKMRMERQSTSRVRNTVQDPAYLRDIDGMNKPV
UniProt Q01959, whole entry: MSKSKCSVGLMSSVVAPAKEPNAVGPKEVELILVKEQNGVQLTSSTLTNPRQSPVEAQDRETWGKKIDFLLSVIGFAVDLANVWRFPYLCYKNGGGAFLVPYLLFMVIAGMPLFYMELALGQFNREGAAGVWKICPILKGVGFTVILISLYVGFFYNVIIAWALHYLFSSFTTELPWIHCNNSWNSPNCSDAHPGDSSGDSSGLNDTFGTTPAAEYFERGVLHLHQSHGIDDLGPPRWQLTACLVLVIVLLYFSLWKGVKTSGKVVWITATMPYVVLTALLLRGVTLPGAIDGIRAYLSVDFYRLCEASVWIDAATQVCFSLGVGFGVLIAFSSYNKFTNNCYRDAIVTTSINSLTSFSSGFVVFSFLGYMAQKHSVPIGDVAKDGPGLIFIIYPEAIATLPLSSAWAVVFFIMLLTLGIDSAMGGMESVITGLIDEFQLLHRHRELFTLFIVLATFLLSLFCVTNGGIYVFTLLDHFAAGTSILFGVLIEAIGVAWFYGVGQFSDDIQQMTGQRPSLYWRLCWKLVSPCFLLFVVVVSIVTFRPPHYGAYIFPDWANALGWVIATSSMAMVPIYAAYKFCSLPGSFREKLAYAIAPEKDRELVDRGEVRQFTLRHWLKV
UniProt P23975, whole entry: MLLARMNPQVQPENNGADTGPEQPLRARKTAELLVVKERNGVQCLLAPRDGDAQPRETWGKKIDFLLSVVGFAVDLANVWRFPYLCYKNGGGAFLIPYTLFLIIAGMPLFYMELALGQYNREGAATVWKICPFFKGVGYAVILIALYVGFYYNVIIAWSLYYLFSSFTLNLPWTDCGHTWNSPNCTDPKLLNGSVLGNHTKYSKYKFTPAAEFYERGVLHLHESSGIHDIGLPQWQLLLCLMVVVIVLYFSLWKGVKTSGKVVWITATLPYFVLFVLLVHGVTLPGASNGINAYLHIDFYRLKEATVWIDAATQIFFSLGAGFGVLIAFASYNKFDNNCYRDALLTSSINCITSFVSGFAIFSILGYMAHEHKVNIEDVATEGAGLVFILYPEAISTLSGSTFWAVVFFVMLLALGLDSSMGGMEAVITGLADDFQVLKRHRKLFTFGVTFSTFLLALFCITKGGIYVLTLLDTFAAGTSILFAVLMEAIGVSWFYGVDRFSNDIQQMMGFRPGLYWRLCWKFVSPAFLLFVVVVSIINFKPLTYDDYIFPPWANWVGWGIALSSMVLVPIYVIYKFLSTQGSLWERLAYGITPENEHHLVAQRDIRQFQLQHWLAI

Tests used:
[1] = molecular target: Kappa-type opioid receptor (Homo sapiens, UniProt P41145)
[2] = molecular target: Sodium-dependent dopamine transporter (Homo sapiens, UniProt Q01959)
[3] = molecular target: Sodium-dependent noradrenaline transporter (Homo sapiens, UniProt P23975)

O=C1CCc2ccc(OCCCCN3CCN(c4cccc(Cl)c4Cl)CC3)cc2N1 [7-{4-[4-(2,3-dichlorophenyl)piperazin-1-yl]butoxy}-3,4-dihydroquinolin-2(1H)-one]
Ki [1]: > 10 µM
Ki [2]: 3.22 µM
Ki [3]: 2.09 µM
